This is an account of results in PubChem BioAssay AID330 (DTP/NCI, 2004).

The list is a part of this screen's results and no random one: it is rich in T/C values a quarter to a half above the control, in often repeated tests (any T/C) and in doses without a T/C. Other doses and runs of a compound stand elsewhere. T/C: endpoint of the treated group in % of that of the vehicle group. Some doses have a count of surviving animals in place of a T/C: the source holds a T/C of zero for them, seemingly a mark for toxic or unscored doses. Some survivor counts are full or nearly so, which does not show that the dose was tolerated: the source hardly ever lists a survival T/C far under the control, and the zero likely stands for such cases as well. Counts of survivors are from the toxicity check (mostly the fifth day) where no day follows; animals may have died later. Schedule codes are those of the source, read here as Q, the interval in days (D) or hours (H), X, the number of doses. For survival time, the PubChem record calls one and a half times the control and up active, and a quarter to a half above the control has no call in these data; cut-offs in other NCI protocols can differ. Some T/C values are followed by the survivors on the day toxicity was checked, most often the fifth; where none is given, no animal had died by that day.

The test system of this experiment is P388 leukemia ip, CD2F1 mice, survival T/C. As to the kind of experiment: NCI In Vivo Anticancer Drug Screen. Data for tumor model P388 Leukemia (intraperitoneal) in CD2F1 (CDF1) mice. The settings on record: T/C endpoint: median survival time, higher T/C = longer survival.
Setting [1] is: dose: 200.0 mg/kg/injection, schedule: Q01DX009 (ip), vehicle: saline with Tween-80.
Where [2] appears, read: dose: 50.0 mg/kg/injection, schedule: Q01DX009 (ip), vehicle: Klucel (hydroxypropylcellulose) (HPC).
The mark [3] stands for this setting: dose: 200.0 mg/kg/injection, schedule: Q01DX005 (ip), vehicle: Klucel (hydroxypropylcellulose) (HPC).
Where [4] appears, read: dose: 200.0 mg/kg/injection, schedule: Q01DX009 (ip), vehicle: saline.
Where [5] appears, read: dose: 100.0 mg/kg/injection, schedule: Q01DX005 (ip), vehicle: Klucel (hydroxypropylcellulose) (HPC).
[6] abbreviates: dose: 400.0 mg/kg/injection, schedule: Q01DX005 (ip), vehicle: Klucel (hydroxypropylcellulose) (HPC).
Where [7] appears, read: dose: 200.0 mg/kg/injection, schedule: Q04DX003 (ip), vehicle: saline with Tween-80.

Consider `CCCCCCCCCCCCCCCC1C(N)C(=O)N(C)N1C` (stereo unspecified), for which the survivor count under setting [1] was 5 of 6.

On to `O=C1NC(=O)C2=C1CCCC2Br` (stereo unspecified), for which the survivor count (dose: 25.0 mg/kg/injection, schedule: Q01DX009 (ip), vehicle: distilled water + Tween-80) is listed as 2 of 6; the survivor count (dose: 50.0 mg/kg/injection, schedule: Q01DX009 (ip), vehicle: distilled water + Tween-80) is recorded as 0 of 6; the survivor count (dose: 100.0 mg/kg/injection, schedule: Q01DX009 (ip), vehicle: distilled water + Tween-80) is on record as 0 of 6. For the compound `CC1=C2C(=CO[C@H](C)[C@H]2C)C(=O)C(C(=O)O)=C1O`, the T/C reads like this: (dose: 25.0 mg/kg/injection, schedule: Q01DX009 (ip), vehicle: saline) 136 % of control; (dose: 50.0 mg/kg/injection, schedule: Q01DX009 (ip), vehicle: saline) 128 % of control. Besides, the survivor count under setting [2] was 2 of 6. For `N#CCc1ccc(N(CCO)CCO)cc1`, the survivor count (dose: 100.0 mg/kg/injection, schedule: Q01DX005 (ip), vehicle: saline with Tween-80) is listed as 5 of 5 and the survivor count (dose: 200.0 mg/kg/injection, schedule: Q01DX005 (ip), vehicle: saline with Tween-80) was 0 of 5. On to `Nc1nc(Cl)c2[nH]c(Cl)nc2n1`, for which, under setting [3], the survivor count is reported as 5 of 5.

With `N#CNC1=NC(c2ccccc2)CC=C1` (stereo unspecified), under setting [1], the survivor count is reported as 3 of 6.

In the case of `CCCCCCc1c(C#N)c(S)[nH]c(=S)c1C#N`, the survivor count is recorded as 3 of 6 (dose: 100.0 mg/kg/injection, schedule: Q01DX009 (ip), vehicle: saline) and 0 of 6 under setting [4].

In the case of `CCCC(NC(=O)CNC(=O)OCc1ccccc1)C(=O)O` (stereo unspecified), under setting [3], the survivor count is 2 of 6. Consider `CCNC(=O)n1cccc(OC)c1=O`, for which the T/C under setting [4] was 135 % of control. In addition, for the setting “dose: 400.0 mg/kg/injection, schedule: Q01DX009 (ip), vehicle: saline”, the survivor count was 1 of 6. With `CCOC(=O)/C(=C(/[S-])SC)[n+]1ccc(C)cc1`, the survivor count (dose: 400.0 mg/kg/injection, schedule: Q04DX002 (ip), vehicle: saline with Tween-80) is given as 2 of 6.

`CCCCCCCCCSc1nc2ccc(NC(=O)/C=C/C(=O)O)cc2s1`: the survivor count (dose: 200.0 mg/kg/injection, schedule: Q01DX009 (ip), vehicle: Klucel (hydroxypropylcellulose) (HPC)) was 0 of 6. With `CCOc1ccc(C(C)c2cc3c(cc2OCC)OCO3)cc1C` (stereo unspecified), the T/C runs as follows: under setting [5], 129 % of control; (dose: 200.0 mg/kg/injection, schedule: Q01DX005 (ip), vehicle: Klucel (hydroxypropylcellulose) (HPC), evaluated on day 20) 136 % of control; (dose: 200.0 mg/kg/injection, schedule: Q01DX005 (ip), vehicle: Klucel (hydroxypropylcellulose) (HPC), evaluated on day 30) 146 % of control; under setting [6], 131 % of control. Moreover, under setting [6], the survivor count is on record as 6 of 6. With `Cn1nnnc1N/N=C(\Br)c1ccccc1`, the T/C (dose: 100.0 mg/kg/injection, schedule: Q01DX009 (ip), vehicle: saline with Tween-80) was 127 % of control.

In the case of `CC1(C)N=C(N)N=C(N)N1c1ccc(CCc2ccccc2)c(Cl)c1`, the T/C (dose: 6.25 mg/kg/injection, schedule: Q01DX009 (ip), vehicle: saline sonified) was 130 % of control [5 of 6 alive]; the T/C (dose: 6.25 mg/kg/injection, schedule: Q01DX009 (ip), vehicle: saline with Tween-80) was 127 % of control; the T/C (dose: 12.5 mg/kg/injection, schedule: Q01DX009 (ip), vehicle: saline sonified) was 125 % of control [5 of 6 alive]. Besides, the survivor count (dose: 25.0 mg/kg/injection, schedule: Q01DX009 (ip), vehicle: saline sonified) is 3 of 6. Regarding `CCN(CC)Cc1c(O)ccc2c3c(c(=O)oc12)CCCC3`, the survivor count (dose: 64.0 mg/kg/injection, schedule: Q01DX009 (ip), vehicle: Klucel (hydroxypropylcellulose) (HPC)) was 2 of 5. In the case of `O=[As](O)(O)c1ccc(Nc2nc(Cl)nc(Cl)n2)cc1`, the survivor count under setting [2] is reported as 5 of 6. Take `Clc1ccc2nc(CI)c(CI)nc2c1`: under setting [7], the survivor count is given as 0 of 6. Regarding `COc1cc(C2c3cc(O)c(OC)cc3CC(O)(CO)C2CO)ccc1O` (stereo unspecified), under “dose: 380.0 mg/kg/injection, schedule: Q01DX005 (ip), vehicle: Klucel (hydroxypropylcellulose) (HPC)”, the survivor count is listed as 5 of 5.

`CS(=O)(=O)c1nnnn1-c1ccccc1`: the survivor count is, setting by setting: (dose: 100.0 mg/kg/injection, schedule: Q04DX003 (ip), vehicle: saline with Tween-80) 4 of 6; under setting [7], 1 of 6; (dose: 400.0 mg/kg/injection, schedule: Q04DX003 (ip), vehicle: saline with Tween-80) 0 of 6. In the case of `O=C(CCc1ccc(O)c(O)c1)c1ccc(O)c(O)c1O`, the T/C (dose: 64.0 mg/kg/injection, schedule: Q01DX009 (ip), vehicle: saline) was 126 % of control. As to `CSC1(SC2=NCCN2)SC2(NCCN2)S1`, the survivor count (dose: 100.0 mg/kg/injection, schedule: Q01DX001 (ip), vehicle: Klucel (hydroxypropylcellulose) (HPC)) is on record as 6 of 6.

As for `CCCCc1ccc2nccc(N/N=C/c3ccc(OC)c4ccccc34)c2c1`, the survivor count by setting is: (dose: 25.0 mg/kg/injection, schedule: Q01DX005 (ip), vehicle: Klucel (hydroxypropylcellulose) (HPC)) 6 of 6; (dose: 50.0 mg/kg/injection, schedule: Q01DX005 (ip), vehicle: Klucel (hydroxypropylcellulose) (HPC)) 6 of 6; under setting [5], 6 of 6; under setting [3], 1 of 6.
